The values below come from publication PMC7819943, “Rice protein-binding microarrays: a tool to detect cis-acting elements near promoter regions in rice”.

Protein sequences, listed by entry. Tags and fused reporters are not part of them.
UniProt Q0JBA9, entry or part of it: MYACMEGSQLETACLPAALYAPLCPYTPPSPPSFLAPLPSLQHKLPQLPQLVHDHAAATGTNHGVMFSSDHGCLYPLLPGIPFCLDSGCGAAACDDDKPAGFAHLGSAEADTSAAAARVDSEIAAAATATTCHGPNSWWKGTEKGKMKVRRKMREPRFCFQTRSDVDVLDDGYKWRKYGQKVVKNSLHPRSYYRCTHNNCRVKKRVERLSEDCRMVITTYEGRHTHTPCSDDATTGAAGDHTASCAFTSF

The other results are listed elsewhere or left out.

This experiment deals with OsWRKY34 (Oryza sativa, UniProt Q0JBA9 1-250). As to the kind of experiment: protein-binding microarray (RPBM); PBS, 2% BSA, 51.3 ng/ul salmon testes DNA, 50 uM zinc acetate, 200 nM TF, 25 C, 1 h; high values mean tight binding. Particulars: protein: recombinant; tags: N-terminal polyhistidine and DsRed monomer fusion (pET32a); label: CyDye5-dUTP incorporated in the synthesized complementary strand; 3' TTTTT single-stranded linker to array surface; dsDNA, one strand shown. The procedure, abridged:
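The binding signal for each feature is its fluorescence intensity in arbitrary units. An Axon 4000B scanner was used to read a custom Agilent array that had been made double-stranded with Cy5-dUTP primer extension, blocked with 2% BSA, incubated at 25 °C for 1 h with 200 nM protein in PBS, 2% BSA, salmon testes DNA and 50 µM zinc acetate, and washed. The protein was an N-terminal polyhistidine–DsRed transcription factor fusion from E. coli BL21-CodonPlus, purified on Ni–NTA.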
As to “TGGGTCTCTTGGGGTCGGTGGGGCGGTCGTCGTCCGTGCCCGGAGTCACCTAGTGCAG”, the binding signal is 11400 fluorescence intensity (a.u.). Take “GATGGAGTAGTTGCTTCGGACACCAACAACTTCTTTGCAACGGAGTCACCTAGTGCAG”: the binding signal was 8220 fluorescence intensity (a.u.).

As to “GAGGCCATTGCACCAGCACGAATCACGAGGCAGATATTACCGGAGTCACCTAGTGCAG”, the binding signal is 8260 fluorescence intensity (a.u.). As for “CACTCTGCAGCTCTGCTCGTTTTGCACACGGGTGACTCGTCGGAGTCACCTAGTGCAG”, the figure is 9700 fluorescence intensity (a.u.); as for “GTGTTCTTTGTGGTTTTTGTTAATGTCTTTACTAGTTTTTCGGAGTCACCTAGTGCAG”, 14600 fluorescence intensity (a.u.). For the sequence “TGCTGGGTTTGTGCGATTCGGATTTGGGTTCGGGGCCGGTCGGAGTCACCTAGTGCAG”, the binding signal was 9330 fluorescence intensity (a.u.). Regarding “GCGTAAGGTCTCTGATGTTCTCTTCTTTTGTACCGTTCATCGGAGTCACCTAGTGCAG”, the binding signal is 11300 fluorescence intensity (a.u.). On to “AAAATGAAAAATTCGTAATGTGTTTCTTTTATATCATTTTCGGAGTCACCTAGTGCAG”, for which the binding signal is 8250 fluorescence intensity (a.u.). For the sequence “GCATCCCTATCGCAGAAGTCAAACCGGGCGGGGCCCATTCCGGAGTCACCTAGTGCAG”, the binding signal was 8120 fluorescence intensity (a.u.).

Turning to “GCTCTCTTCTCGCCGCCTCGGCCTCGCCGCCGTGGCCGCCCGGAGTCACCTAGTGCAG”, the binding signal is 9500 fluorescence intensity (a.u.).

For the sequence “GTTGATACAGTGTCTCCCACTGAACGGCGACCACAGCTCACGGAGTCACCTAGTGCAG”, the binding signal was 8190 fluorescence intensity (a.u.). With “GTGCATAGGGTTTCCGACTGGAATTGGGTTGGAGGGGCTTCGGAGTCACCTAGTGCAG”, the binding signal is 8120 fluorescence intensity (a.u.). Take “ACGGCATCAAATCTCTGTTTGTACATGTGCCCCTGTTCTTCGGAGTCACCTAGTGCAG”: the binding signal was 9440 fluorescence intensity (a.u.). In the case of “TTCATATTTCAATTTTCCTGTCATTGGTACTTTCACAATCCGGAGTCACCTAGTGCAG”, the binding signal was 8090 fluorescence intensity (a.u.). Consider “CCGGGCCTAATATTCTCCCCTTGTCCCCATCATCGCTTGCCGGAGTCACCTAGTGCAG”, for which the binding signal was 8140 fluorescence intensity (a.u.).

As for “CTACTAACTTCATATTTTAATGTATGATGCTGTTGACTTTCGGAGTCACCTAGTGCAG”, the binding signal was 9630 fluorescence intensity (a.u.). On to “ACGGCAATACCTGAAGCGACAATTGTTCTGAAACAAACCGCGGAGTCACCTAGTGCAG”, for which the binding signal was 8100 fluorescence intensity (a.u.).

As for “ATGAACTTTGTACCGCATATTGATCTCTTACTAACTTACCCGGAGTCACCTAGTGCAG”, the binding signal is 10900 fluorescence intensity (a.u.). Take “CACCGTCTCCCTCCGCCGCCATCGTCGTCCCCGTCGCTTCCGGAGTCACCTAGTGCAG”: the binding signal is 8060 fluorescence intensity (a.u.).

Turning to “TTCATTGTTCATCTATTTTGATCTTTTCTTGGGACATTTCCGGAGTCACCTAGTGCAG”, the binding signal is 14800 fluorescence intensity (a.u.).

Consider “GGGCGTGTGGTTGAGAACTTGATTGGGATGATGATGAGACCGGAGTCACCTAGTGCAG”, for which the binding signal was 10400 fluorescence intensity (a.u.). In the case of “ACCTCGGAAAGTACGGGGTTCTCGTCGGCTGGGTGGGTGTCGGAGTCACCTAGTGCAG”, the binding signal is 11500 fluorescence intensity (a.u.).

With “TTGCATTTGAAGACATGTAGTGTGTAGGGTGGGTTCTATTCGGAGTCACCTAGTGCAG”, the binding signal is 13500 fluorescence intensity (a.u.). In the case of “GGTGAGTTTTTTTTTTCTTTCAAATCTCACTCTCTTTTCTCGGAGTCACCTAGTGCAG”, the binding signal was 9010 fluorescence intensity (a.u.).

In the case of “CTTGTCCGCTTAATTAAATTGATACCATTTTCGTTCTTGTCGGAGTCACCTAGTGCAG”, the binding signal is 9810 fluorescence intensity (a.u.). Regarding “ATCCACGGCCTCTCATCTGCTCCATCCAACGCCCGTCCTTCGGAGTCACCTAGTGCAG”, the binding signal was 8110 fluorescence intensity (a.u.). With “GCACAGGGGCTGGTTTGGTCTCATAGTGATGCACTTGATACGGAGTCACCTAGTGCAG”, the binding signal was 10900 fluorescence intensity (a.u.). The value for “TAGCCCGTACAGCTAAGCTAGCCACCTCCTCCTCTATTTTCGGAGTCACCTAGTGCAG” was 8370 fluorescence intensity (a.u.); that for “CTCTTCATTTTTTTAATAGATAGCGTCGTTGACTTTTGAACGGAGTCACCTAGTGCAG” was 14800 fluorescence intensity (a.u.). With “CGCCTCCGCCTCCTTCTCTTCCCGTCCGTTCATCCAGATGCGGAGTCACCTAGTGCAG”, the binding signal was 9920 fluorescence intensity (a.u.).

With “TGCTTTGGTTGTCTTCTTTATCTAGAAGGCTTTGATTGCTCGGAGTCACCTAGTGCAG”, the binding signal was 9520 fluorescence intensity (a.u.). The value for “ATCTGGCCTACAGCTCTATATAGGGTTGTCATCGCTTGCCCGGAGTCACCTAGTGCAG” was 8080 fluorescence intensity (a.u.); that for “CTACACTAGATCGACTAGGCTACTCTACTTCTCTTCTGGACGGAGTCACCTAGTGCAG” was 8280 fluorescence intensity (a.u.); that for “AAATTCTTCAGTTTTGACATATACCATTACTACGCCATTACGGAGTCACCTAGTGCAG” was 8660 fluorescence intensity (a.u.).

On to “TTGCTTCCTTTGTCCTTACTGACATTATTACCTCAGAGACCGGAGTCACCTAGTGCAG”, for which the binding signal was 8870 fluorescence intensity (a.u.). Regarding “ATTGTCAGCCACTTTTCACATTTCTCGTCTATTCATTTTCCGGAGTCACCTAGTGCAG”, the binding signal is 15900 fluorescence intensity (a.u.). As for “TCTTATGGTATGTTTGATAGAGCTCGAACTCATAAATTTACGGAGTCACCTAGTGCAG”, the figure is 8250 fluorescence intensity (a.u.); as for “GGCACCACCATCCGTTGCTCATCATCTGACCTTTTCCTGACGGAGTCACCTAGTGCAG”, 11900 fluorescence intensity (a.u.). As for “ACCTGCAGCTCAAGCAAATCTCACTAGCTAACTATACAAACGGAGTCACCTAGTGCAG”, the binding signal is 8060 fluorescence intensity (a.u.). For the sequence “TTGGTTTGAATTTGTTAGAGCGGGTGGGGATGGGCTGGATCGGAGTCACCTAGTGCAG”, the binding signal was 11700 fluorescence intensity (a.u.). For “TCGTCGCTCCCATCTCCACTCGTCTCGACGCATCCGAGATCGGAGTCACCTAGTGCAG”, the binding signal is 8500 fluorescence intensity (a.u.). As for “TTTCTCTGAAGCTCATTATAGACCAGCTTTTGTAATCATGCGGAGTCACCTAGTGCAG”, the figure is 9040 fluorescence intensity (a.u.). With “CTCAACATGGTAGGCTAACTTTCTCACCTCTGCAATCCAACGGAGTCACCTAGTGCAG”, the binding signal was 8810 fluorescence intensity (a.u.). Take “GCCCACCATCCTTCCGGTTCTCCAGCTACGCAACAATAATCGGAGTCACCTAGTGCAG”: the binding signal was 8650 fluorescence intensity (a.u.). As for “ATTGCCACACTCTTTTCATATGCACAAAAATAACCTAGAACGGAGTCACCTAGTGCAG”, the figure is 9680 fluorescence intensity (a.u.).

As for “ACCACATCCACTGCCGCGCCACGCCTCTCGGCCGCCACACCGGAGTCACCTAGTGCAG”, the binding signal is 10300 fluorescence intensity (a.u.). The value for “CGCAAGCGATCTTTTCACTTTGAGCTACTGTACCTTTTTTCGGAGTCACCTAGTGCAG” was 8980 fluorescence intensity (a.u.); that for “TGACGACCAGCTGAAACACGCGCGCGCGCGCCCACACACACGGAGTCACCTAGTGCAG” was 8050 fluorescence intensity (a.u.); that for “GATATCTACTTGCTTTTATTTTTGCTTGAACCATGACAATCGGAGTCACCTAGTGCAG” was 9150 fluorescence intensity (a.u.). “CCGCTACCGTTGGCCACCACAAGATACAAGCTCGCTATGCCGGAGTCACCTAGTGCAG”: the binding signal was 8470 fluorescence intensity (a.u.). The value for “GCTGTGTTTTCTTTTCTTACATACTCTATCTCTGAGATTCCGGAGTCACCTAGTGCAG” was 8110 fluorescence intensity (a.u.); that for “GTTAGCGTTGGTGTCAATTTCTTTCTTGCTTGCTTCCAACCGGAGTCACCTAGTGCAG” was 8070 fluorescence intensity (a.u.). For the sequence “CCACTCACTTTCCCCACACGCGTTCGTCACTCCAAGCTCGCGGAGTCACCTAGTGCAG”, the binding signal was 9900 fluorescence intensity (a.u.). As to “GTTTTTTGTTTTTAAGTAACCTTTCCCCTTGTCACTTTTTCGGAGTCACCTAGTGCAG”, the binding signal is 8130 fluorescence intensity (a.u.).
